Laboratory results from paper PMC11667820.
No constants are given. Whether binding was seen depends on the method and setting. Binding seen in cells or lysates may run through a third protein. Binding calls can cover weak binding; strength is not graded here.

Experiments:
[1] = target: T1, vinexin-β (human (endogenous in FaDu and SAS)) (UniProt O60504); assay: co-IP; anti-vinexin immunoprecipitation from lysates of SAS cells expressing RARγ4 constructs; lysis buffer 20 mM Tris-HCl pH 7.5, 150 mM NaCl, 1 mM Na2EDTA, 1 mM EGTA, 0.2% Triton, 1 mM PMSF; 4 °C overnight; protein A/G-agarose; blot for rhotekin and RARγ4
T1 sequence: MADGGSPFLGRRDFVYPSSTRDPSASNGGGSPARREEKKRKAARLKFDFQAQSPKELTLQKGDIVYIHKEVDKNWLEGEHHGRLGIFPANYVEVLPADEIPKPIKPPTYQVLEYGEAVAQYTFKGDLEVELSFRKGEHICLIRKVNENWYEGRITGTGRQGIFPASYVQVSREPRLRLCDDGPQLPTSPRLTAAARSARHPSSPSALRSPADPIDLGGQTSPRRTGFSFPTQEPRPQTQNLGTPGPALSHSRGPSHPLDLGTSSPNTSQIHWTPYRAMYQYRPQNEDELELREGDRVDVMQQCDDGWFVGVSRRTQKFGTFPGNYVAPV

[2] = target: Flag-tagged RARγ4-S299E (phospho-mimetic mutant) (human); assay: co-IP; anti-Flag immunoprecipitation from lysates of FaDu and SAS cells expressing Flag-RARγ4 or its mutants; lysis buffer 20 mM Tris-HCl pH 7.5, 150 mM NaCl, 1 mM Na2EDTA, 1 mM EGTA, 0.2% Triton, 1 mM PMSF; 4 °C overnight; protein A/G-agarose; blot for vinexin-β; in one panel cells treated with THZ1 (200 nM) or SB203580 (1 μM) for 6 h
[3] = target: Flag-tagged RARγ4-S299A (phospho-defective mutant) (human); assay: as above
[4] = target: Flag-tagged RARγ4 (retinoic acid receptor gamma isoform 4), wild type (human); assay: as above
[5] = target: Flag-tagged RARγ4-R324G (RA-binding defective mutant) (human); assay: as above
[6] = target: Flag-tagged RARγ4-S7E (phospho-mimetic mutant) (human); assay: as above
[7] = target: Flag-tagged RARγ4-S7A (phospho-defective mutant) (human); assay: as above

Measured: binding

Flag-tagged RARγ4-S7A (phospho-defective mutant) (human)
binds: [1]

B1: vinexin-β (protein, UniProt O60504-2 1-329)
chain: MADGGSPFLGRRDFVYPSSTRDPSASNGGGSPARREEKKRKAARLKFDFQAQSPKELTLQKGDIVYIHKEVDKNWLEGEHHGRLGIFPANYVEVLPADEIPKPIKPPTYQVLEYGEAVAQYTFKGDLEVELSFRKGEHICLIRKVNENWYEGRITGTGRQGIFPASYVQVSREPRLRLCDDGPQLPTSPRLTAAARSARHPSSPSALRSPADPIDLGGQTSPRRTGFSFPTQEPRPQTQNLGTPGPALSHSRGPSHPLDLGTSSPNTSQIHWTPYRAMYQYRPQNEDELELREGDRVDVMQQCDDGWFVGVSRRTQKFGTFPGNYVAPV
binds: [2] | [3] | [4] | [5] | [6] | [7]
